# The list shows a part of the results.
# Chains of the proteins cited; added tags and fusions are not shown. Lines headed by an entry give the natural chain unless they say otherwise; changes in a name come on top.
# UniProt P07195, whole entry, looked up: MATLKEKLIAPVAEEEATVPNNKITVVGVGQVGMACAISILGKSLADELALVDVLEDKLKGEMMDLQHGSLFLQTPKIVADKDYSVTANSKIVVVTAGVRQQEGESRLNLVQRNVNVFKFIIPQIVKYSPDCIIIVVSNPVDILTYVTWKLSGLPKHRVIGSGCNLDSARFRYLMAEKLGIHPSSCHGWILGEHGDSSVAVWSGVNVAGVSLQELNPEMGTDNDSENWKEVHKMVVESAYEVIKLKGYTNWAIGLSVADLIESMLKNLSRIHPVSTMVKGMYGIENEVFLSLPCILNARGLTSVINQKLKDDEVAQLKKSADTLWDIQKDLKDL
# UniProt P13796: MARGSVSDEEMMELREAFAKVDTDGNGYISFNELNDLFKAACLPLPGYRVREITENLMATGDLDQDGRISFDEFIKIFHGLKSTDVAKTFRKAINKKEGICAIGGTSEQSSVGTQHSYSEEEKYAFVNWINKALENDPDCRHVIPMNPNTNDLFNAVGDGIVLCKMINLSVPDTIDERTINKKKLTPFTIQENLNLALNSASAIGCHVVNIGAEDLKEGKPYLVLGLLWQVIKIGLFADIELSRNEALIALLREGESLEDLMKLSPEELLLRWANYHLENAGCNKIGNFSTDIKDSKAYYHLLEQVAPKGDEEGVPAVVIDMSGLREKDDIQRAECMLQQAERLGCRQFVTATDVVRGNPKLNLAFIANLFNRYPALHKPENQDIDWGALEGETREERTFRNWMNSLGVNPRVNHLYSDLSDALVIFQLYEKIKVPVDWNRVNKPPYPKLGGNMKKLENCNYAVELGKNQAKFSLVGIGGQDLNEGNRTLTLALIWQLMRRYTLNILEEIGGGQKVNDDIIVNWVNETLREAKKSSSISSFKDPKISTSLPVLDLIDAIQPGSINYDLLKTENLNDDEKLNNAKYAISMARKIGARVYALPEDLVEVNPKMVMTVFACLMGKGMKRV
# UniProt P11279: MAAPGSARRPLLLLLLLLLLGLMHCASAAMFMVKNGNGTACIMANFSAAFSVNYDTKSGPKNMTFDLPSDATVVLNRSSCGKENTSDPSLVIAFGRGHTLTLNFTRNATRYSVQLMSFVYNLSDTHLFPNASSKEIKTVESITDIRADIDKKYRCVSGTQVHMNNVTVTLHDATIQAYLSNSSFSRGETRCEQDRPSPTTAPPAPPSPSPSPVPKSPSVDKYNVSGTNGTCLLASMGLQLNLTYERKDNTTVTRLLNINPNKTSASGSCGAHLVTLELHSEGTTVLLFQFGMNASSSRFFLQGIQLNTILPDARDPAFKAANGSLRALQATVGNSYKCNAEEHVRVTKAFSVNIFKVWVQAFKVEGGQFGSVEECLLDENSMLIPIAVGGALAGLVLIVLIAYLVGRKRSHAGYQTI
# UniProt Q9NUP9: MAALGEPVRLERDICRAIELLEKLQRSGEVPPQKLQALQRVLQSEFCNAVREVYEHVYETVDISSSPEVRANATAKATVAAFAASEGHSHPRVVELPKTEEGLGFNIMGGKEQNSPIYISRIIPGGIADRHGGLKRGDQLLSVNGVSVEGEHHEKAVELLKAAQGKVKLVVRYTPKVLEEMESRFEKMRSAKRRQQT
# UniProt P25791: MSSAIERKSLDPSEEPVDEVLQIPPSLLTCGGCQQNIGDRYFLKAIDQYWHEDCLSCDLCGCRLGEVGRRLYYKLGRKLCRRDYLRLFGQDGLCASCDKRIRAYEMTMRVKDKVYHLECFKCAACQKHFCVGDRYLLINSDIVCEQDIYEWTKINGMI
# UniProt P53671: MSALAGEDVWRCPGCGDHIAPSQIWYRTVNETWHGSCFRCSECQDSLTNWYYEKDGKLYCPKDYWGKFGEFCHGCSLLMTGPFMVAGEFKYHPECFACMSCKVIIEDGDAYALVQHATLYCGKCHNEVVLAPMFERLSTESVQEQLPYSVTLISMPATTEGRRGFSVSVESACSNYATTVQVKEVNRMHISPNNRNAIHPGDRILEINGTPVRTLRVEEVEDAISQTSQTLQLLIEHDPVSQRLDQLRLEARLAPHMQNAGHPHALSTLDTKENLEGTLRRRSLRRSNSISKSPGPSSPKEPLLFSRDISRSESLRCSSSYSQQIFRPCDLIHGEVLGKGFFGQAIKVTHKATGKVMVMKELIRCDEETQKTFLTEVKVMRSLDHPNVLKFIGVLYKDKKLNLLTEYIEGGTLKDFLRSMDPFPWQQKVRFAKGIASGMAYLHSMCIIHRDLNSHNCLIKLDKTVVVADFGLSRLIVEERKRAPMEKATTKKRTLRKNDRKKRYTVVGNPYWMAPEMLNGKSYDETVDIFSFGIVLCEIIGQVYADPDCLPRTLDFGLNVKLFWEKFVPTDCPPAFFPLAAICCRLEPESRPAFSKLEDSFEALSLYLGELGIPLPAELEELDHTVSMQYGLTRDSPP
# UniProt Q4G0J3: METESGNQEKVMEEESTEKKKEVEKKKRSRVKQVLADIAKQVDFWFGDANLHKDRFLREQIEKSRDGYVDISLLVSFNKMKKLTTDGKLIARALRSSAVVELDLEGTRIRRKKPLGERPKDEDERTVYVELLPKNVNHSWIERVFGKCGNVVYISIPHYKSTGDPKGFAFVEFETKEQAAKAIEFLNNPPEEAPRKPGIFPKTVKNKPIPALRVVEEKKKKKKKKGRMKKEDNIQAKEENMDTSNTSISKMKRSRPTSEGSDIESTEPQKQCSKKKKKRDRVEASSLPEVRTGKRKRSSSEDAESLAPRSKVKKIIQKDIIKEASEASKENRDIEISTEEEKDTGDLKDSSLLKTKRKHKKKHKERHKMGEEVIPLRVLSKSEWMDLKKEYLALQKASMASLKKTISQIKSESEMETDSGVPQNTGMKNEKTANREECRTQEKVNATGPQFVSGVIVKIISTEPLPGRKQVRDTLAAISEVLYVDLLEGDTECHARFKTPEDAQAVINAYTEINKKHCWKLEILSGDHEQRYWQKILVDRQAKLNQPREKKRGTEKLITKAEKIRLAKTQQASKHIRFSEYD
# UniProt P13473: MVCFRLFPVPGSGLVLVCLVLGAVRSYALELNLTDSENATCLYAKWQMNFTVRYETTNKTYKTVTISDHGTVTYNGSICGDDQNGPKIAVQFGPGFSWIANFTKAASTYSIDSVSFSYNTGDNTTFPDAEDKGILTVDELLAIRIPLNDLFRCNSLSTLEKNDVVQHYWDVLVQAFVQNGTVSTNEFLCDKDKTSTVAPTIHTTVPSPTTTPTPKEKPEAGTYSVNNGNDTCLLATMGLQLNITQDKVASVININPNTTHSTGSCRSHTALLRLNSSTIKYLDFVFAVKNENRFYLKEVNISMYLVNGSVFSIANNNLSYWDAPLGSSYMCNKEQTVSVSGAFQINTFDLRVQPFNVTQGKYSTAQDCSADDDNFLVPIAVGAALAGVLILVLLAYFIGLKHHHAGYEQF
# UniProt P07942: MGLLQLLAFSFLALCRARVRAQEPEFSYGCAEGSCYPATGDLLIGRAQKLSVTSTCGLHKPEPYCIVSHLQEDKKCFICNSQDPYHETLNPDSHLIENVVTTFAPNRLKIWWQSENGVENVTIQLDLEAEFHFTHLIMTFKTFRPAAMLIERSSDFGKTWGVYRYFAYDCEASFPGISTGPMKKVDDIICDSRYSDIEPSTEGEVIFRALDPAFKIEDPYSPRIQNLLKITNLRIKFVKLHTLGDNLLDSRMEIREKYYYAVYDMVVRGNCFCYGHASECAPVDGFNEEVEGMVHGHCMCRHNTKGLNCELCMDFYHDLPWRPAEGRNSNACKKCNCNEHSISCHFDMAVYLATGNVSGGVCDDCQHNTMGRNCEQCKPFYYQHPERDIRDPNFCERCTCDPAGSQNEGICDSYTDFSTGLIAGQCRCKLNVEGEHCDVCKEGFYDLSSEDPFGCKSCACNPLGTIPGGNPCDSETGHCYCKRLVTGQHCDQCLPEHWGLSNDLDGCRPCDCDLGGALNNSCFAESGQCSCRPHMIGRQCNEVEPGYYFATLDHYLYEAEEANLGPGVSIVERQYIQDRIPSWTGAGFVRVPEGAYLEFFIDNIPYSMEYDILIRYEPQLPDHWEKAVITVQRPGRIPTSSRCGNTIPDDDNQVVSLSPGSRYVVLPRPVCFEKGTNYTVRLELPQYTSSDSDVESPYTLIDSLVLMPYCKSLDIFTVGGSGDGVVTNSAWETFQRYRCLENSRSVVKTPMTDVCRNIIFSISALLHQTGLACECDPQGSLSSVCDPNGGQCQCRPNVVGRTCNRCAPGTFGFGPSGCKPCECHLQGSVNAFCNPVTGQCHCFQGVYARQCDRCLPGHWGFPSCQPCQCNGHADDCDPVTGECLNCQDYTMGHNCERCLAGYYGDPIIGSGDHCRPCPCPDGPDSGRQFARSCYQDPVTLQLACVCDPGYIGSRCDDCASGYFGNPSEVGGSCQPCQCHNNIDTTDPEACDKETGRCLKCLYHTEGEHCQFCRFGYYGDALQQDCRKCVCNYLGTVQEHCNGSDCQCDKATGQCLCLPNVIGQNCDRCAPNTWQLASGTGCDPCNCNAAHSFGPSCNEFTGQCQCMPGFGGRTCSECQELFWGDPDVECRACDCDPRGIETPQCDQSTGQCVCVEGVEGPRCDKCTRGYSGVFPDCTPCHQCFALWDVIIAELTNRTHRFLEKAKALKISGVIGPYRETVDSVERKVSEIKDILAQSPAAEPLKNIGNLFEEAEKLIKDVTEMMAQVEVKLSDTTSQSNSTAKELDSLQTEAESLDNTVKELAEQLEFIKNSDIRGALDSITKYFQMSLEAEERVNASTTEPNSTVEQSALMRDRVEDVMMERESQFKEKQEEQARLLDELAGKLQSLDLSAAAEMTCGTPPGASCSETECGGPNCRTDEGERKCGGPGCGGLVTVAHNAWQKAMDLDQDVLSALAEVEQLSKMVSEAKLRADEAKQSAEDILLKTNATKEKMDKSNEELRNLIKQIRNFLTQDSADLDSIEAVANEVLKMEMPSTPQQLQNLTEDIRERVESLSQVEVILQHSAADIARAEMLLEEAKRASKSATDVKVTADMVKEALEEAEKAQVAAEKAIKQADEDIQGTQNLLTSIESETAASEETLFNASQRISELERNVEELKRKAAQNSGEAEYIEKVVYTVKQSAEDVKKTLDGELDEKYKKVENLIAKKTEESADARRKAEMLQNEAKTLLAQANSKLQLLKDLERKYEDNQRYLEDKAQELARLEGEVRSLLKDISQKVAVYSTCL
# UniProt Q14657: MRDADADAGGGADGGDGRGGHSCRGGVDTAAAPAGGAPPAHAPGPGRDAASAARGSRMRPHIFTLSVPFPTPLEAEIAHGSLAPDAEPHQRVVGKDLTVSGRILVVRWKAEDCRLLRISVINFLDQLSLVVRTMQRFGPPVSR
# UniProt Q8N9N7: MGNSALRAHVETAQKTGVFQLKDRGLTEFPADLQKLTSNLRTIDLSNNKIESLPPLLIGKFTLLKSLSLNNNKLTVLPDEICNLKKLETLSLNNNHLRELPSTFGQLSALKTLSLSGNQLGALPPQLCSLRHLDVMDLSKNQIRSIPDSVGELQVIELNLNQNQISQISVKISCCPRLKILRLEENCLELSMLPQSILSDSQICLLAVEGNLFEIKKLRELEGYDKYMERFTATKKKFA
# UniProt P02545: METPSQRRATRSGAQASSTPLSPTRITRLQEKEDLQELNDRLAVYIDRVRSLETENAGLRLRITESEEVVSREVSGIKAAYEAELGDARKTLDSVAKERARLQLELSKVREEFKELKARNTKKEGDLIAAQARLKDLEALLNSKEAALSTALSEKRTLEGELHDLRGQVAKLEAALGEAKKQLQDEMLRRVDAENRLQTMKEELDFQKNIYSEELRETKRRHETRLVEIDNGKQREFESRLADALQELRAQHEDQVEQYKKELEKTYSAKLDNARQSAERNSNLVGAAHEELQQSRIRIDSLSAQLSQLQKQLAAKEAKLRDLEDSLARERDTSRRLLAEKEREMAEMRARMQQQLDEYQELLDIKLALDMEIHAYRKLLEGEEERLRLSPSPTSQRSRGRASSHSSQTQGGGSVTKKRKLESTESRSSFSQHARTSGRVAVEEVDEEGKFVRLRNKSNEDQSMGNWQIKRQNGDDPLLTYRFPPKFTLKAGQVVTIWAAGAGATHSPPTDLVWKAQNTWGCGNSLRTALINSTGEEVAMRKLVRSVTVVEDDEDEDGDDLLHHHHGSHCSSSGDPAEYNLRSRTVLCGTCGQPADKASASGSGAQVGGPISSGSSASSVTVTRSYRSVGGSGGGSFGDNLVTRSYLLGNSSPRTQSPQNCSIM
# What was measured:
# Assay in all cases: log2 fold change, soluble protein after heating vs DMSO (PISA); higher = thermal stabilisation; K562 cells, 10 uM, 30 min; active = over 0.2 and 3.5 SD of the protein, either way, in both replicates (recomputed)
# bafetinib = compound: Cc1ccc(NC(=O)c2ccc(CN3CC[C@H](N(C)C)C3)c(C(F)(F)F)c2)cc1Nc1nccc(-c2cncnc2)n1 [bafetinib]
# Method in brief: (§1)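 Quantification of soluble protein used TMTpro 16plex LC-MS/MS, with channel sums equalised. Samples were the supernatant after 21,000xg for 90 min of pooled aliquots from K562 cells (2×10^6 cells/mL) treated with 10 μM compound for 30 min, heated for 3 min over 48°C-58°C, and extracted in PBS with 0.5% NP-40 at 4°C. Values, from duplicates, describe thermal stability against control samples on a log2 fold-change scale.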
# [1] = compound: Cc1cccc(CC(=O)N2CCc3c2ccc(-c2cn(C)c4ncnc(N)c24)c3F)n1
# Method in brief: as §1
# nilotinib = compound: Cc1cn(-c2cc(NC(=O)c3ccc(C)c(Nc4nccc(-c5cccnc5)n4)c3)cc(C(F)(F)F)c2)cn1 [nilotinib]
# Method in brief: as §1
# [2] = compound: Cc1nc(Nc2n[nH]c3c2CN(C(=O)N[C@H](CN(C)C)c2ccccc2)C3(C)C)c2sccc2n1
# Method in brief: as §1
# dasatinib = compound: Cc1nc(Nc2ncc(C(=O)Nc3c(C)cccc3Cl)s2)cc(N2CCN(CCO)CC2)n1 [dasatinib]
# Method in brief: as §1
# [3] = compound: Cc1ncc(-c2ccnc(Nc3ccc(S(C)(=O)=O)cc3)n2)n1C(C)C
# Method in brief: as §1
# [4] = compound: Cn1cc(-c2ccc3c(c2)CCN3C(=O)Cc2cccc(C(F)(F)F)c2)c2c(N)ncnc21
# Method in brief: as §1
# [5] = compound: Cn1cc(-c2ccc3nnc(C(F)(F)c4ccc5ncccc5c4)n3n2)cn1
# Method in brief: as §1
# tipifarnib = compound: Cn1cncc1[C@@](N)(c1ccc(Cl)cc1)c1ccc2c(c1)c(-c1cccc(Cl)c1)cc(=O)n2C [tipifarnib]
# Method in brief: as §1
# mubritinib = compound: FC(F)(F)c1ccc(/C=C/c2nc(COc3ccc(CCCCn4ccnn4)cc3)co2)cc1 [mubritinib]
# Method in brief: as §1
# [6] = compound: NC(=O)Nc1cc(-c2cccc(F)c2)sc1C(=O)N[C@H]1CCCNC1
# Method in brief: as §1
# [7] = compound: NC(=O)c1cnc(N[C@@H]2CCCC[C@@H]2N)nc1Nc1cccc(-n2nccn2)c1
# Method in brief: as §1
# [8] = compound: NC1(c2ccc(-c3nc4ccn5c(=O)[nH]nc5c4cc3-c3ccccc3)cc2)CCC1
# Method in brief: as §1
# [9] = compound: NCC(=O)Nc1ccc(-n2nc(C(F)(F)F)cc2-c2ccc3c(ccc4ccccc43)c2)cc1
# Method in brief: as §1
# entinostat = compound: Nc1ccccc1NC(=O)c1ccc(CNC(=O)OCc2cccnc2)cc1 [entinostat]
# Method in brief: as §1
# vorinostat = compound: O=C(CCCCCCC(=O)Nc1ccccc1)NO [vorinostat]
# Method in brief: as §1
# citarinostat = compound: O=C(CCCCCCNC(=O)c1cnc(N(c2ccccc2)c2ccccc2Cl)nc1)NO [citarinostat]
# Method in brief: as §1
# silmitasertib = compound: O=C(O)c1ccc2c(c1)nc(Nc1cccc(Cl)c1)c1ccncc12 [silmitasertib]
# Method in brief: as §1
# [10] = compound: O=C1NC(=O)C(c2cnc3ccccn23)=C1c1cn2c3c(cc(F)cc13)CN(C(=O)N1CCCCC1)CC2
# Method in brief: as §1
# [11] = compound: c1cc(OCCN2CCCCC2)cc(-c2n[nH]c3ccc(-c4nnc[nH]4)cc23)c1
# Method in brief: as §1
Target,log2 fold change (bafetinib),log2 fold change [1],log2 fold change (nilotinib),log2 fold change [2],log2 fold change (dasatinib),log2 fold change [3],log2 fold change [4],log2 fold change [5],log2 fold change (tipifarnib),log2 fold change (mubritinib),log2 fold change [6],log2 fold change [7],log2 fold change [8],log2 fold change [9],log2 fold change (entinostat),log2 fold change (vorinostat),log2 fold change (citarinostat),log2 fold change (silmitasertib),log2 fold change [10],log2 fold change [11]
LDHB (UniProt P07195),inactive: 0.01,inactive: 0.035,inactive: 0.015,inactive: 0.017,inactive: 0.025,inactive: 0,inactive: 0.021,inactive: -0.004,inactive: -0.019,inactive: 0.059,inactive: 0.012,inactive: 0.012,inactive: 0.056,inactive: 0,inactive: -0.021,inactive: 0.029,inactive: 0,inactive: -0.02,inactive: -0.024,inactive: -0.013
LCP1 (UniProt P13796),inactive: -0.02,inactive: -0.001,inactive: 0.012,inactive: -0.014,inactive: 0.068,inactive: -0.008,inactive: 0.012,inactive: 0.009,inactive: 0.04,inactive: 0.04,inactive: -0.032,inactive: -0.017,inactive: 0.016,inactive: 0.007,inactive: -0.035,inactive: -0.011,inactive: 0.005,inactive: 0.001,inactive: -0.073,inactive: -0.022
LMAN1 (UniProt P49257),inactive: -0.096,inactive: 0.006,inactive: -0.035,inactive: 0.01,inactive: -0.013,inactive: -0.044,inactive: -0.033,inactive: 0.045,inactive: -0.031,inactive: -0.002,inactive: 0.026,inactive: -0.029,inactive: -0.106,inactive: -0.031,inactive: 0.033,inactive: 0.012,inactive: -0.021,inactive: 0.046,inactive: -0.046,inactive: 0.02
LAMP1 (UniProt P11279),inactive: -0.031,inactive: 0.007,inactive: -0.019,inactive: 0.023,inactive: 0.036,inactive: -0.018,inactive: -0.011,inactive: -0.036,inactive: 0.027,inactive: 0,inactive: -0.005,inactive: -0.004,inactive: 0.062,inactive: 0.036,inactive: -0.04,inactive: -0.07,inactive: -0.006,inactive: 0.056,inactive: 0.009,inactive: -0.006
LRPPRC (UniProt P42704),inactive: -0.053,inactive: 0.117,inactive: -0.14,inactive: -0.721,inactive: -0.732,inactive: 0.016,inactive: 0.236,inactive: 0.24,inactive: -0.656,inactive: -0.161,inactive: -0.249,inactive: -0.291,inactive: -0.676,inactive: -0.272,inactive: 0.479,inactive: 0.289,inactive: 0.203,inactive: 0.033,inactive: -0.383,inactive: -0.128
LPCAT1 (UniProt Q8NF37),inactive: -0.073,inactive: 0.054,inactive: -0.063,inactive: -0.008,inactive: -0.053,inactive: -0.026,inactive: 0.048,inactive: 0.02,inactive: 0.022,inactive: 0.025,inactive: -0.073,inactive: -0.026,inactive: -0.097,inactive: -0.031,inactive: 0.02,inactive: 0.019,inactive: 0.016,inactive: 0.015,inactive: -0.015,inactive: -0.058
LEO1 (UniProt Q8WVC0),inactive: -0.003,inactive: 0.008,inactive: -0.125,inactive: -0.045,inactive: 0.049,inactive: -0.094,inactive: -0.026,inactive: 0.023,inactive: -0.009,inactive: 0.035,inactive: 0.003,inactive: -0.06,inactive: -0.028,inactive: -0.11,inactive: 0.005,inactive: 0.088,inactive: 0.009,inactive: 0.068,inactive: -0.153,inactive: -0.055
LIN7C (UniProt Q9NUP9),inactive: -0.059,inactive: -0.001,inactive: 0.048,inactive: -0.039,inactive: -0.01,inactive: -0.024,inactive: -0.012,inactive: -0.042,inactive: 0.061,inactive: 0.099,inactive: -0.117,inactive: 0.002,inactive: -0.052,inactive: -0.012,inactive: 0.004,inactive: 0.027,inactive: 0.019,inactive: -0.045,inactive: -0.052,inactive: -0.06
LMO2 isoform 3 (UniProt P25791),inactive: 0.035,inactive: 0.039,inactive: -0.051,inactive: 0.06,inactive: -0.032,inactive: -0.005,inactive: 0.031,inactive: -0.047,inactive: -0.057,inactive: 0.033,inactive: 0.02,inactive: -0.044,inactive: 0.092,inactive: -0.145,inactive: -0.027,inactive: 0.033,inactive: -0.066,inactive: 0.083,inactive: 0.024,inactive: 0.089
LIMK2 isoform 3 (UniProt P53671),inactive: -0.161,inactive: -0.106,inactive: -0.182,inactive: 0.025,inactive: 0.168,inactive: -0.114,inactive: -0.228,inactive: -0.02,inactive: 0.198,inactive: -0.01,inactive: -0.413,inactive: -0.086,inactive: -0.008,inactive: -0.231,inactive: -0.152,inactive: -0.032,inactive: -0.286,inactive: 0.316,inactive: -0.199,inactive: -0.067
LARP7 isoform 3 (UniProt Q4G0J3),inactive: -0.045,inactive: 0.041,inactive: 0.01,active: -0.298,inactive: -0.063,inactive: -0.249,inactive: 0.021,inactive: 0.029,inactive: 0.021,inactive: -0.05,inactive: -0.011,inactive: -0.116,inactive: -0.129,inactive: -0.019,inactive: -0.007,inactive: 0.082,inactive: 0.043,inactive: 0.03,inactive: -0.034,inactive: -0.065
LAMP2 (UniProt P13473),inactive: -0.124,inactive: -0.051,inactive: 0.002,inactive: -0.014,inactive: 0.017,inactive: 0.014,inactive: 0.048,inactive: 0.035,inactive: 0.14,inactive: 0.017,inactive: -0.013,inactive: 0.043,inactive: -0.122,inactive: 0.055,inactive: -0.045,inactive: 0.083,inactive: 0.158,inactive: 0.005,inactive: 0.065,inactive: -0.11
LAMB1 (UniProt P07942),inactive: -0.076,inactive: -0.02,inactive: -0.004,inactive: 0.021,inactive: -0.056,inactive: -0.048,inactive: -0.032,inactive: -0.061,inactive: 0.051,inactive: -0.04,inactive: -0.014,inactive: 0.011,inactive: -0.025,inactive: -0.021,inactive: -0.049,inactive: 0.012,inactive: 0.059,inactive: 0.039,inactive: -0.011,inactive: -0.007
LAGE3 (UniProt Q14657),inactive: -0.078,inactive: -0.181,inactive: 0.023,inactive: -0.04,inactive: 0.058,inactive: -0.017,inactive: 0.017,inactive: 0.094,inactive: 0.002,inactive: 0.081,inactive: -0.048,inactive: 0.003,inactive: -0.033,inactive: 0,inactive: 0.094,inactive: -0.132,inactive: -0.003,inactive: -0.057,inactive: -0.08,inactive: -0.042
LRRC57 (UniProt Q8N9N7),inactive: -0.004,inactive: 0.02,inactive: 0.008,inactive: -0.015,inactive: 0.022,inactive: 0.012,inactive: 0.066,inactive: 0.004,inactive: -0.023,inactive: 0.036,inactive: -0.03,inactive: 0.001,inactive: -0.08,inactive: -0.01,inactive: 0.013,inactive: -0.064,inactive: 0.022,inactive: -0.034,inactive: -0.038,inactive: 0.005
LMNA (UniProt P02545),inactive: -0.011,inactive: -0.025,inactive: 0.065,inactive: -0.116,inactive: 0.097,inactive: -0.179,inactive: -0.04,inactive: -0.043,inactive: 0.064,inactive: -0.069,inactive: 0.205,inactive: -0.013,inactive: 0.024,inactive: 0.047,inactive: -0.004,inactive: -0.026,inactive: 0.039,inactive: 0.015,inactive: -0.075,inactive: -0.068

# A different layout for part of the listing above:
Target	log2 fold change (bafetinib)	log2 fold change [1]	log2 fold change (nilotinib)	log2 fold change [2]	log2 fold change (dasatinib)	log2 fold change [3]	log2 fold change [4]	log2 fold change [5]	log2 fold change (tipifarnib)	log2 fold change (mubritinib)	log2 fold change [6]	log2 fold change [7]	log2 fold change [8]	log2 fold change [9]	log2 fold change (entinostat)	log2 fold change (vorinostat)	log2 fold change (citarinostat)	log2 fold change (silmitasertib)	log2 fold change [10]	log2 fold change [11]
LMAN1 (UniProt P49257)	inactive: -0.096	inactive: 0.006	inactive: -0.035	inactive: 0.01	inactive: -0.013	inactive: -0.044	inactive: -0.033	inactive: 0.045	inactive: -0.031	inactive: -0.002	inactive: 0.026	inactive: -0.029	inactive: -0.106	inactive: -0.031	inactive: 0.033	inactive: 0.012	inactive: -0.021	inactive: 0.046	inactive: -0.046	inactive: 0.02
LAMP1 (UniProt P11279)	inactive: -0.031	inactive: 0.007	inactive: -0.019	inactive: 0.023	inactive: 0.036	inactive: -0.018	inactive: -0.011	inactive: -0.036	inactive: 0.027	inactive: 0	inactive: -0.005	inactive: -0.004	inactive: 0.062	inactive: 0.036	inactive: -0.04	inactive: -0.07	inactive: -0.006	inactive: 0.056	inactive: 0.009	inactive: -0.006
